# Measurements published in publication PMC7819943, “Rice protein-binding microarrays: a tool to detect cis-acting elements near promoter regions in rice”.
# Sequences of proteins named here, by UniProt entry; tags and fusion partners are left off.
# UniProt Q0JBA9, entry or part of it: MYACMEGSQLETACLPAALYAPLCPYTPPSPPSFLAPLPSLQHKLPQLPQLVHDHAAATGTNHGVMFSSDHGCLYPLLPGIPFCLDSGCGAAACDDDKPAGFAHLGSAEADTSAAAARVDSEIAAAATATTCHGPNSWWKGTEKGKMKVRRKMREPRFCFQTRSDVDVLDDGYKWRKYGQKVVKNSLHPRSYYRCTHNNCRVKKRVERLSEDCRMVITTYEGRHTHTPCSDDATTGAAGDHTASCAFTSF
# The list shows a part of the results.
# Target: OsWRKY34 (Oryza sativa, UniProt Q0JBA9 1-250)
# Assay: protein-binding microarray (RPBM); PBS, 2% BSA, 51.3 ng/ul salmon testes DNA, 50 uM zinc acetate, 200 nM TF, 25 C, 1 h; high values mean tight binding
# Details: protein: recombinant; tags: N-terminal polyhistidine and DsRed monomer fusion (pET32a); label: CyDye5-dUTP incorporated in the synthesized complementary strand; 3' TTTTT single-stranded linker to array surface; dsDNA, one strand shown
# Procedure, shortened: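 A custom Agilent array was converted to double-stranded form by primer extension with Cy5-dUTP and blocked with 2% BSA. Protein at 200 nM in PBS with 2% BSA, salmon testes DNA and 50 µM zinc acetate was applied for 1 h at 25 °C, followed by washing. The proteins were polyhistidine–DsRed N-terminal fusions of transcription factors, expressed in E. coli BL21-CodonPlus and Ni–NTA-purified. The binding signal is per-feature fluorescence intensity (arbitrary units) from an Axon 4000B scanner.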
row,Sequence,binding signal
1,AGGGGCCAAGTTGCGCGGGGTTGTATTGACTGAATGGCGCCGGAGTCACCTAGTGCAG,10100 fluorescence intensity (a.u.)
2,ACTGTGTTGTTCAATTCTCATTCCAGCCTTCTACTGCAATCGGAGTCACCTAGTGCAG,11000 fluorescence intensity (a.u.)
3,GATTGCTTTTCTATTTTTCCTTTTTTTTTTATCATCCTTACGGAGTCACCTAGTGCAG,12400 fluorescence intensity (a.u.)
4,CCTCGCGCACACCGTTGATAACTTGATACTCTCCCGATTTCGGAGTCACCTAGTGCAG,10800 fluorescence intensity (a.u.)
5,CAGCCAAGCCACTATTCCCTGTCATCTCCGGCGCCGACGCCGGAGTCACCTAGTGCAG,8510 fluorescence intensity (a.u.)
6,CCCACATGTCATTCTCACCCCTCCTCTTCTTCCTCTTATTCGGAGTCACCTAGTGCAG,10500 fluorescence intensity (a.u.)
7,CCATCCGAAATTTTCTCTTCCTTAAATTTCGCCGTCTCGACGGAGTCACCTAGTGCAG,9540 fluorescence intensity (a.u.)
8,ACACGTGATTTCTCACCGCTCGACGCTCGTCCTCTCCCCTCGGAGTCACCTAGTGCAG,8740 fluorescence intensity (a.u.)
9,GTTGTTCGTGTGTTTTGCAATCCTCTGTTTTACACTTGCACGGAGTCACCTAGTGCAG,11000 fluorescence intensity (a.u.)
10,TTGCAATAGTTTATTCCGCCTGTCTAATGACCGGCCGGTGCGGAGTCACCTAGTGCAG,11100 fluorescence intensity (a.u.)
11,ATGGAGAAGAATGTCTCGCCCTGATACCTTGGTTGCTTTGCGGAGTCACCTAGTGCAG,8120 fluorescence intensity (a.u.)
12,TACTCGAATTAAGTACTTACTATTATTCTTCTTTTGTATTCGGAGTCACCTAGTGCAG,8200 fluorescence intensity (a.u.)
13,CATTATATTCTTTAGCTCGAGGTGTTGTTAATCATTGTTACGGAGTCACCTAGTGCAG,9820 fluorescence intensity (a.u.)
14,AAGTTGTTAGTCAAGGTGATTAGGTTGGATGATTTGACCTCGGAGTCACCTAGTGCAG,8690 fluorescence intensity (a.u.)
15,CACCACTGCAGCCTCCTCCTCTTGCCATCCTTCCGCTTCTCGGAGTCACCTAGTGCAG,8620 fluorescence intensity (a.u.)
16,TACGTCTCCTCCGATACATCGCGCTTTCCTGCTCCCTTTTCGGAGTCACCTAGTGCAG,11100 fluorescence intensity (a.u.)
17,GCGTCCACTTGCACGGTTTTTTACTGTTATTTCTTTTCGTCGGAGTCACCTAGTGCAG,8320 fluorescence intensity (a.u.)
18,TTTACCGGCCTTATTGGTCTTTTTTTTATTATTTCTTTTACGGAGTCACCTAGTGCAG,10800 fluorescence intensity (a.u.)
19,GTGCTCGGCTCCTCTCTCAGTAGCTTGTATGTGTCAGTTGCGGAGTCACCTAGTGCAG,10500 fluorescence intensity (a.u.)
20,GTCGGCTCCACTCCCGCCTCGCCATCGCCGCCCTGAAGCCCGGAGTCACCTAGTGCAG,9340 fluorescence intensity (a.u.)
21,TATTTCTATATGGACTTTGTTTTTTCTTTTTCTTCTTTTTCGGAGTCACCTAGTGCAG,13100 fluorescence intensity (a.u.)

row,Sequence,binding signal
1,GATTGATGTGGAAGAGTAGTTATTAGGAGGGAGGAAGCAACGGAGTCACCTAGTGCAG,9030 fluorescence intensity (a.u.)
2,TATCCCTTTGTTTTCTTACATATTATATTCTTTTCGCGTTCGGAGTCACCTAGTGCAG,12700 fluorescence intensity (a.u.)
3,CCCCTGCCTGCTTTGCCCGCTGGCCTCTCAGTCTTGGTGACGGAGTCACCTAGTGCAG,8290 fluorescence intensity (a.u.)
4,TTTTTCCCTTCTTTTTCTCCGCCGTAGTGTACTCCTCCTACGGAGTCACCTAGTGCAG,8590 fluorescence intensity (a.u.)
5,CCGACGCCGGCCCACCGCCCTCCTCCATCTCCGCGGCTCCCGGAGTCACCTAGTGCAG,8070 fluorescence intensity (a.u.)
6,ACAAAACAACAACCCACCGTAAGACGCTCCGTGCCCAAACCGGAGTCACCTAGTGCAG,8180 fluorescence intensity (a.u.)
7,AATGTTGGTCCTACCTTTTCCTATCCAACCTTTACGAACTCGGAGTCACCTAGTGCAG,9860 fluorescence intensity (a.u.)
8,GAGGGAGTATGGAATAGTAGTGTTTGCATTGGAAGAGTAGCGGAGTCACCTAGTGCAG,8070 fluorescence intensity (a.u.)
9,GTGGGATGACGGGACGTGGGCTGGGGTTGGCCTGGGCTGACGGAGTCACCTAGTGCAG,9770 fluorescence intensity (a.u.)
10,TTCCATGTATTTATGTATTTTTGTACCTTTATAAATTATCCGGAGTCACCTAGTGCAG,8310 fluorescence intensity (a.u.)
11,AGCTTTCGGGTTAATTTGGTTATTACATAGGAGTATATTTCGGAGTCACCTAGTGCAG,9520 fluorescence intensity (a.u.)
12,TTCGTGTGAAATTTCTCAAACTTTGTTTTTTGTTGTACGTCGGAGTCACCTAGTGCAG,11700 fluorescence intensity (a.u.)
13,CTAGGTGTTTTTTTTTCTTCCTTCTTTTCGTTTTTCCTCGCGGAGTCACCTAGTGCAG,14300 fluorescence intensity (a.u.)
14,GTGCGTATCCCCGCGAAACGCCTCGTCGCGTTCATATTTGCGGAGTCACCTAGTGCAG,8930 fluorescence intensity (a.u.)
15,TCTTTGTACTCTGTGGTTTTCCATATCAATATCATATAAACGGAGTCACCTAGTGCAG,8060 fluorescence intensity (a.u.)
16,TTATGGTGTTCTTTATATATCATGTTTTGGATACACTCCACGGAGTCACCTAGTGCAG,8900 fluorescence intensity (a.u.)
17,GTTATTGTTGACCTTTTCTTTTGTTTTCGGTGTTTTATGTCGGAGTCACCTAGTGCAG,9830 fluorescence intensity (a.u.)
18,GTATAACGCCGTTGACTTTTTAACCAATGTTTGACCATTCCGGAGTCACCTAGTGCAG,40400 fluorescence intensity (a.u.)
19,CCTTTTTCACTTTTTTTCTCCTTTTTGTAAATGACACTTTCGGAGTCACCTAGTGCAG,8150 fluorescence intensity (a.u.)
20,TGTACTTCTCACCTCCTAATTAACCCTGCACCACCGTAATCGGAGTCACCTAGTGCAG,9540 fluorescence intensity (a.u.)
21,TGGCTTACTGGCTCAATGCCTTTGTCTTACCGCACATCCACGGAGTCACCTAGTGCAG,8790 fluorescence intensity (a.u.)

row,Sequence,binding signal
1,TCTGTCGTTTCTCTCACTAGTCATTACAAGCTCCAATTAACGGAGTCACCTAGTGCAG,8330 fluorescence intensity (a.u.)
2,TCGAGCCTACTAGTATAAATTGTACCTCGTTGTTATGAAGCGGAGTCACCTAGTGCAG,8250 fluorescence intensity (a.u.)
3,GCTGTTGGTTTGTGTGGCGAAGAGACGTCAACTTCGCCCTCGGAGTCACCTAGTGCAG,9840 fluorescence intensity (a.u.)
4,ACCTGGGTATGTGTAGTGGTGTATCTTTGAATCAATGTGTCGGAGTCACCTAGTGCAG,9940 fluorescence intensity (a.u.)
5,CTGGGGTTAGTTCTATGGATATTTGCTACTCCTGTTGATACGGAGTCACCTAGTGCAG,8220 fluorescence intensity (a.u.)
6,GGACACGCTGAACCCCACTCCTTCTGTCCCCACATGTCATCGGAGTCACCTAGTGCAG,8110 fluorescence intensity (a.u.)
7,CCCTACCACCACCACCAGCACAGAATACTCGCATTAACATCGGAGTCACCTAGTGCAG,9210 fluorescence intensity (a.u.)
8,GGGTTGGTTCCTGCCTCTCGAGTCTCAGCAAGTGTGTCACCGGAGTCACCTAGTGCAG,11500 fluorescence intensity (a.u.)
9,ACCATCGATTTAATTTGACTGTTGATCATAATAATATATCCGGAGTCACCTAGTGCAG,8480 fluorescence intensity (a.u.)
10,GGCCCATATCTCCGACAGATAGCTAGATAACATCAAATTACGGAGTCACCTAGTGCAG,8050 fluorescence intensity (a.u.)
11,CATGACCTCAAGCATCTTTTGTCGATGGACATCCATCTCCCGGAGTCACCTAGTGCAG,8810 fluorescence intensity (a.u.)
12,CTCTATTTCAGGGTATAAAGGGTTTGCGTGATGAAATTGCCGGAGTCACCTAGTGCAG,8190 fluorescence intensity (a.u.)
13,AGATTGTGGTGGGTGTTGATTGTGGTGATCTTGTCCCCTCCGGAGTCACCTAGTGCAG,13000 fluorescence intensity (a.u.)
14,TTAGGGTTGTAACCATGTAATTTTTCGCTACTATATATCACGGAGTCACCTAGTGCAG,8150 fluorescence intensity (a.u.)
15,GACTGACTGTTTGACTTATCTTTAGTCAAGGTGTTTTGCGCGGAGTCACCTAGTGCAG,8040 fluorescence intensity (a.u.)
16,ACTAAAATTTTGTGTTTTTATCACCTGTTACATCATATTGCGGAGTCACCTAGTGCAG,8200 fluorescence intensity (a.u.)
17,TCTCGACCCGCCGGCCTCCTCCCTTGTCCAGCGTCGCCGCCGGAGTCACCTAGTGCAG,9870 fluorescence intensity (a.u.)
18,AGAGACCCTTTTCCTTAATTTTGTTTGATCATTCCCTTTCCGGAGTCACCTAGTGCAG,9130 fluorescence intensity (a.u.)
19,CTTATTGTAGCCTGATCACCACTATTGGTCCCTGTTGGAACGGAGTCACCTAGTGCAG,8720 fluorescence intensity (a.u.)
20,GTTATAATTTTTTCGTGACAACCACTCACCCTTCTCAATACGGAGTCACCTAGTGCAG,8520 fluorescence intensity (a.u.)
21,GGCTTCTTTGATATCTTGTTTGCATCTCCCGTGTACTGTACGGAGTCACCTAGTGCAG,11000 fluorescence intensity (a.u.)

# Given with tabs: entries from further up.
row	Sequence	binding signal
3	GATTGCTTTTCTATTTTTCCTTTTTTTTTTATCATCCTTACGGAGTCACCTAGTGCAG	12400 fluorescence intensity (a.u.)
7	CCATCCGAAATTTTCTCTTCCTTAAATTTCGCCGTCTCGACGGAGTCACCTAGTGCAG	9540 fluorescence intensity (a.u.)
14	AAGTTGTTAGTCAAGGTGATTAGGTTGGATGATTTGACCTCGGAGTCACCTAGTGCAG	8690 fluorescence intensity (a.u.)
20	GTCGGCTCCACTCCCGCCTCGCCATCGCCGCCCTGAAGCCCGGAGTCACCTAGTGCAG	9340 fluorescence intensity (a.u.)
2	TATCCCTTTGTTTTCTTACATATTATATTCTTTTCGCGTTCGGAGTCACCTAGTGCAG	12700 fluorescence intensity (a.u.)
3	CCCCTGCCTGCTTTGCCCGCTGGCCTCTCAGTCTTGGTGACGGAGTCACCTAGTGCAG	8290 fluorescence intensity (a.u.)
6	ACAAAACAACAACCCACCGTAAGACGCTCCGTGCCCAAACCGGAGTCACCTAGTGCAG	8180 fluorescence intensity (a.u.)
9	GTGGGATGACGGGACGTGGGCTGGGGTTGGCCTGGGCTGACGGAGTCACCTAGTGCAG	9770 fluorescence intensity (a.u.)
7	CCCTACCACCACCACCAGCACAGAATACTCGCATTAACATCGGAGTCACCTAGTGCAG	9210 fluorescence intensity (a.u.)
12	CTCTATTTCAGGGTATAAAGGGTTTGCGTGATGAAATTGCCGGAGTCACCTAGTGCAG	8190 fluorescence intensity (a.u.)
16	ACTAAAATTTTGTGTTTTTATCACCTGTTACATCATATTGCGGAGTCACCTAGTGCAG	8200 fluorescence intensity (a.u.)

# More records follow.

row,Sequence,binding signal
1,ACGTTGTCGTGGTAGTTGGCATTGATCTCGGAGTTCGGCTCGGAGTCACCTAGTGCAG,9170 fluorescence intensity (a.u.)
2,CCCCACGCCACAGCCTCTTATCCCACACGCGGACCAACAGCGGAGTCACCTAGTGCAG,8860 fluorescence intensity (a.u.)
3,GGAGTACTGTACTGGTTTAGCCTTTTCAGCTTGTCTGTTTCGGAGTCACCTAGTGCAG,10900 fluorescence intensity (a.u.)
4,TGAATCATGACAAATTTGCTTACAATTCGTTGCTGTAGTGCGGAGTCACCTAGTGCAG,8140 fluorescence intensity (a.u.)
5,TAGCCGCCACCTTCCGATCGCCCGCATCCGGATCGGTCTCCGGAGTCACCTAGTGCAG,13000 fluorescence intensity (a.u.)
6,GGAGGGAGAGGGGTCAGGCTCAATTGCGTCTCCTTCGTATCGGAGTCACCTAGTGCAG,8200 fluorescence intensity (a.u.)
7,GCTGCTCGCGGTTTGGCATTGTCTCTCTAGAGTCTAGACTCGGAGTCACCTAGTGCAG,12600 fluorescence intensity (a.u.)
8,GCGCTTACATGGCGGTGTTGATCTAGTCTGTGGTGTTGACCGGAGTCACCTAGTGCAG,12600 fluorescence intensity (a.u.)
9,GTTTTGGCTGACGTGGCGCCTACGTGGTTTGTTTGACCTACGGAGTCACCTAGTGCAG,10200 fluorescence intensity (a.u.)
10,GGCTACTAGGTTTTCTAACTTCTTTTTATTGGTTAAGATTCGGAGTCACCTAGTGCAG,9620 fluorescence intensity (a.u.)
11,ACTCCCTCCGTATTTTAATATATGACGCCGTTGACTTATTCGGAGTCACCTAGTGCAG,13800 fluorescence intensity (a.u.)
12,ATATATATATATATATATATATACTCAGACCGTACTTTGTCGGAGTCACCTAGTGCAG,11400 fluorescence intensity (a.u.)
13,TCAGATGGAAGTGTGATAGATCGTCGGTGGTGTGGGGAGGCGGAGTCACCTAGTGCAG,11800 fluorescence intensity (a.u.)
14,GCCGCCGCCTCCTTCTTCCCCACCGCCGCGGCCGGCCTCTCGGAGTCACCTAGTGCAG,9040 fluorescence intensity (a.u.)
15,ACATTCATCGTGTGATCACAGAAACTTCATACTTTGTTGACGGAGTCACCTAGTGCAG,9880 fluorescence intensity (a.u.)
16,CCGACTGTGTTATGATCCGGTGCTCTCTGTGTACTGTCAGCGGAGTCACCTAGTGCAG,9100 fluorescence intensity (a.u.)
17,TAGGTGTGGTGTGTGGAGAAGCGGTGGACCGACCGACGACCGGAGTCACCTAGTGCAG,8450 fluorescence intensity (a.u.)
18,ATCTTACGAAATTTCTTTTCAAGGTTACACTGTTTCCGCTCGGAGTCACCTAGTGCAG,8990 fluorescence intensity (a.u.)
19,GATCGTGGGAGGGAGGATTGGCCGGTTGTACTACAGTTGACGGAGTCACCTAGTGCAG,8660 fluorescence intensity (a.u.)
20,ACCTCGCGCGCGCAGCTCACGACGCTCGCCCTTGTCGCTTCGGAGTCACCTAGTGCAG,9130 fluorescence intensity (a.u.)
21,GAGGTCATTTGTAGATTTGGATGTGTTGCTTTGGGAAATACGGAGTCACCTAGTGCAG,9280 fluorescence intensity (a.u.)
